From PubChem BioAssay AID504467 (National Center for Advancing Translational Sciences (NCATS), 2011)
Out of some 330,000 compounds screened, about 7,700 (2.3%) were called active. The shares of active, inactive and inconclusive entries below differ from those in the screen. Calls come from the whole dose curve; as a rule, active = well fitted inhibition curve with a large enough effect; inconclusive = small, poorly fitted or top-dose-only effect, or effect the other way; inactive = flat fitted curve, though single readings scatter. Potencies of inconclusive entries are doubtful fits and often do not repeat.

experiment: qHTS screen for small molecules that inhibit ELG1-dependent DNA repair in human embryonic kidney (HEK293T) cells expressing luciferase-tagged ELG1; settings: HEK293T ELG1-luciferase reporter, luminescence, 16 h, DNA damage induced by 5-fluorouridine; series mostly up to 46.1 µM; note: nearly all actives have a fitted effect of over 55% in size
Outline: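 5-Fluorouridine DNA damage + compound/DMSO, 2,000 cells/well, 16 h, 37 °C/5% CO2. ONE-Glo, 30 min RT, luminescence. Readout = decrease in reporter signal.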
Potency is the fitted concentration of half-maximal effect.

| Structure (SMILES) | Potency |
| --- | --- |
| COc1ccc(Cc2nc3c4c(ncn3n2)Oc2ccc3ccccc3c2C4c2ccc(OC)c(OC)c2)cc1 (centres undefined) | inconclusive: 23.1 µM [activator, partial curve, poor fit] |
| O=C(CN1C(=O)COc2ccc(S(=O)(=O)N3CCOCC3)cc21)Nc1cccc(Cl)c1 | inactive |
| Cc1cc(NCCc2ccccc2F)n2ncnc2n1 | inconclusive: 16.4 µM [inhibitor, single point] |
| CCN(CC)c1ccc(C(=O)NC(=S)Nc2cc(S(=O)(=O)N3CCOCC3)ccc2-n2cncn2)cc1 | inactive |
| COc1ccc(S(=O)(=O)N2Cc3ccccc3CC2C(=O)Nc2ccc(O)cc2)cc1OC (centres undefined) | inconclusive: 16.4 µM [inhibitor, single point] |
| COc1ccc(CN(C(=O)c2ccccc2Br)C2CCS(=O)(=O)C2)cc1 (centres undefined) | inactive |
| O=C(NCCOC(=O)c1c(F)cccc1Cl)c1c(F)cccc1Cl | inconclusive: 25.9 µM [inhibitor, partial curve] |
| CNC(=O)c1c(NC(=O)c2cccc(C)c2)sc2c1CCC2 | inconclusive: 5.62 µM [activator, single point] |
| Cc1ccc(NC(=O)CSc2nncs2)cc1Cl | inconclusive: 9.2 µM [activator, partial curve, poor fit] |
| Cc1cc(C)c(C)c(OCCOCCN2CCN(C)CC2)c1 | inactive |
| CC1(C)CC(CC(=O)O)(c2ccc(Cl)cc2)CCO1 (centres undefined) | inactive |
| C#CCOCCOCCOCCNc1nc(N2CCN(C(=O)[C@H]([C@@H](C)CC)n3cc([C@@H](N)CC(C)C)nn3)CC2)nc(N2CCN(C(=O)[C@H](Cc3cc4ccccc4[nH]3)n3cc([C@@H](N)Cc4ccc(O)cc4)nn3)CC2)n1 | inactive |
| CCCc1cc(C(=O)Nc2ccc(CC)cc2)no1 | inconclusive: 16.4 µM [activator, partial curve] |
| NS(=O)(=O)c1ccc(CCNC(=O)CN2CCN(Cc3cccc4ccccc34)CC2)cc1 | inactive |
| C=CCN1C(=O)CSc2ccc(C(=O)NCc3ccco3)cc21 | inactive |
| Cc1ccc(C(=O)n2nc(-c3ccccc3)nc2NCc2ccco2)cc1 | inconclusive: 9.2 µM [activator, single point] |
| COc1ccc(NC(=O)CN(C)C(=O)c2ccc(N3CCCCCC3)c([N+](=O)[O-])c2)cc1 | inactive |
| Cc1cc(C)nc(S/C=C/C(=O)c2ccc(F)cc2)n1 | inconclusive: 16.4 µM [activator, partial curve, poor fit] |
| CCO[C@@H]1OC(C(=O)N2CCN(Cc3ccccc3)CC2)=C[C@H](c2ccc(C(F)(F)F)cc2)[C@H]1CCCO | inactive |
| C=C(C)COc1ccc(-c2n[nH]c(C)c2-c2ccc(OC)c(OC)c2)c(O)c1 | active: 20.6 µM |
| O=S(=O)(c1ccc(F)cc1)N1CCCNCC1 | inconclusive: 23.1 µM [activator, partial curve, poor fit] |
| COc1cc(NC(=O)Cn2cnc3c(NCc4ccccc4)ncnc32)cc(OC)c1OC | inactive |
| CCc1ccc(NC(=O)CN(CC(=O)Nc2ccc(CC)cc2)CC(C)O)cc1 (centres undefined) | inconclusive: 8.2 µM [inhibitor, partial curve, poor fit] |

Quoted at random: six compounds from above, in no set order.

| Structure (SMILES) | Potency |
| --- | --- |
| O=C(NCCOC(=O)c1c(F)cccc1Cl)c1c(F)cccc1Cl | inconclusive: 25.9 µM [inhibitor, partial curve] |
| C#CCOCCOCCOCCNc1nc(N2CCN(C(=O)[C@H]([C@@H](C)CC)n3cc([C@@H](N)CC(C)C)nn3)CC2)nc(N2CCN(C(=O)[C@H](Cc3cc4ccccc4[nH]3)n3cc([C@@H](N)Cc4ccc(O)cc4)nn3)CC2)n1 | inactive |
| COc1ccc(NC(=O)CN(C)C(=O)c2ccc(N3CCCCCC3)c([N+](=O)[O-])c2)cc1 | inactive |
| COc1ccc(CN(C(=O)c2ccccc2Br)C2CCS(=O)(=O)C2)cc1 (centres undefined) | inactive |
| CCc1ccc(NC(=O)CN(CC(=O)Nc2ccc(CC)cc2)CC(C)O)cc1 (centres undefined) | inconclusive: 8.2 µM [inhibitor, partial curve, poor fit] |
| Cc1ccc(NC(=O)CSc2nncs2)cc1Cl | inconclusive: 9.2 µM [activator, partial curve, poor fit] |

The listing continues.

| Structure (SMILES) | Potency |
| --- | --- |
| Cc1ccc(S(=O)(=O)N2[C@@H](c3ccc(Cl)cc3)C(C(=O)O)=CC[C@H]2c2cccs2)cc1 | inactive |
| O=P1(O)C=C(c2ccccc2)OC(c2ccccc2)=C1 | inconclusive: 16.4 µM [activator, partial curve] |
| Cc1cccc(N2CCN(C(=O)C3CCN(c4nnc(-n5cccc5)s4)CC3)CC2C)c1 (centres undefined) | inconclusive: 29.1 µM [inhibitor, single point] |
| COc1cccc(-c2nc(CS(=O)CC(=O)NCCc3ccccc3)c(C)o2)c1 (centres undefined) | inactive |
| Cc1ccc(C(=O)Nc2nc(-c3cc(Cl)sc3Cl)cs2)cc1 | active: 9.2 µM |
| O=C(C1=NNCC1c1ccc(Cl)cc1)C1CO1 (centres undefined) | inconclusive: 29.1 µM [inhibitor, single point] |
| O=S(=O)(/N=C(/Nc1ccccn1)c1ccccc1)c1ccc(F)cc1 | inconclusive: 16.4 µM [activator, partial curve, poor fit] |
| CCOC(=O)C1=C(O)/C(=C/c2ccc(OCC(=O)O)c(OCC)c2)SC1=Nc1ccccc1 | inactive |
| O=P(O)(Cc1ccccc1)Cc1ccccc1 | inconclusive: 14.1 µM [inhibitor, single point] |
| Fc1ccc(CSc2nnc(-c3cccnc3)o2)cc1 | inconclusive: 29.1 µM [activator, single point] |
| COc1ccc(CCC(=O)Nc2cccc(S(=O)(=O)N(C)C)c2)cc1OC | inconclusive: 32.6 µM [inhibitor, single point] |
| Cc1ccccc1-c1cc(C(=O)N/N=C/c2cccnc2)c2ccccc2n1 | inactive |
| Cc1ccc(NCC(=O)N/N=C/c2cccc(Oc3ccccc3)c2)cc1 | inactive |
| COc1ccc(-n2c(-c3ccco3)nc3c(cnn3-c3ccc(C)cc3)c2=O)cc1 | inconclusive: 7.3 µM [inhibitor, single point] |
| c1ccc(-n2ncc3c(NCCN4CCOCC4)ncnc32)cc1 | inconclusive: 16.4 µM [activator, partial curve] |
| CN(C)c1ccc([C@@H]2[C@@H]([N+](=O)[O-])[C@H]3C=Cc4ccccc4N3[C@H]2C(=O)c2ccc(Cl)cc2)cc1 | inconclusive: 0.651 µM [inhibitor, partial curve, poor fit] |
| CCC(CC)C(=O)c1c[nH]c(C(=O)NCc2ccccc2OC)c1 | inactive |
| COc1cc(NC(=O)c2ccc(-c3cccc([N+](=O)[O-])c3)o2)ccc1NC(=O)C(C)C | inconclusive: 20.6 µM [inhibitor, single point] |
| CC(=O)Oc1cccc(-c2nc3ccccc3c(=O)o2)c1 | inactive |
| Cc1ccc(OCCCC(=O)Nc2ccc(N3CCOCC3)cc2)c(C)c1 | inactive |
| Clc1ccc(SCc2cc(-c3ccccc3)no2)cc1 | inconclusive: 18.4 µM [activator, partial curve] |
| COc1ccc(C(=O)Nn2c(C)nc3ccccc3c2=O)cc1OC | inconclusive: 8.2 µM [inhibitor, partial curve, poor fit] |
| O=C(c1ccc(CS(=O)c2cccc(Cl)c2)o1)N1CCN(C2CCCCC2)CC1 (centres undefined) | inconclusive: 29.1 µM [activator, partial curve, poor fit] |

| Structure (SMILES) | Potency |
| --- | --- |
| COc1ccccc1NC(=O)COC(=O)CCc1ccc(S(=O)(=O)N2CCOCC2)cc1 | inactive |
| CCOc1cc(N2CCOCC2)c(OCC)cc1NC(=O)CSc1ncccc1C(=O)O | inactive |
| CC(NC(=O)c1c(O)c2ccccc2n(C)c1=O)c1ccccc1 (centres undefined) | inconclusive: 29.1 µM [activator, single point] |
| CCOC(=O)C(C#N)c1ccccn1 (centres undefined) | inconclusive: 4.61 µM [activator, single point] |
| COc1ccc(N2CCN(C(=O)c3ccc4ccccc4n3)CC2)cc1 | inactive |
| CC1(C(=O)Nc2nccs2)Cc2ccccc2C(=O)O1 (centres undefined) | inactive |
| O=C1c2cc(O)c(O)cc2S(=O)(=O)C1c1ccccc1 (centres undefined) | inactive |
| CC(C)NC(=O)c1cc2c(-c3ccc(Cl)cc3)nn(C)c2s1 | inconclusive: 18.4 µM [activator, partial curve, poor fit] |
| CCOC(=O)Cc1csc(NC(=O)CSc2nc(C)cc(C)n2)n1 | inconclusive: 32.6 µM [inhibitor, single point] |
| CC(C)Oc1ccc(/C=N/NC(=O)C(CSCc2ccccc2)NC(=O)c2ccc([N+](=O)[O-])cc2)cc1 (centres undefined) | inconclusive: 20.6 µM [inhibitor, partial curve, poor fit] |
| Cc1ccsc1/C=N/Nc1nc2ccccc2s1 | inconclusive: 1.46 µM [activator, full curve] |
| Cc1ccc(CS(=O)(=O)CC(C)(O)c2ccccc2)cc1 (centres undefined) | inconclusive: 4.11 µM [inhibitor, partial curve, poor fit] |
| CCOC(=O)c1nnc2c(Br)c(-c3ccccc3)nn2c1C | inconclusive: 32.6 µM [inhibitor, single point] |
| Cc1cccc(CC(=O)NCCN2CCCCC2)c1 | inconclusive: 0.164 µM [inhibitor, full curve, poor fit] |
| CC(=O)Oc1ccc(Cl)cc1/C=C/c1cc(OC(C)=O)c2ccccc2n1 | inconclusive: 18.4 µM [inhibitor, single point] |
| CNC(=O)Nc1cccc(-c2cc(-c3c(Cl)cccc3Cl)no2)c1 | inconclusive: 23.1 µM [inhibitor, single point] |
| CCOc1c(Br)cc(C(=O)OCC(=O)N2CCc3ccccc3C2)cc1OC | inconclusive: 25.9 µM [inhibitor, single point] |
| Cc1ccc(NC(=O)CCOc2ccccc2C)cc1F | inconclusive: 32.6 µM [activator, partial curve, poor fit] |
| COc1ccc(C(=O)Nc2ccc(N3CCN(C)CC3)cc2)cc1OC | inconclusive: 14.6 µM [activator, partial curve] |
| COc1ccc(C(=O)Nc2ccc(S(=O)(=O)N3CCCCC3C)cc2)c(OC)c1OC (centres undefined) | inconclusive: 29.1 µM [inhibitor, single point] |
| CC(C)NC(=O)c1ccc(N(Cc2ccc(Cl)cc2)S(C)(=O)=O)cc1 | inactive |
| COc1ccc(S(=O)(=O)N2CCN(C(=O)c3cc4c(s3)CCC4)CC2)cc1 | inconclusive: 23.1 µM [inhibitor, single point] |
| Cc1ccccc1Nc1nc(-c2sc(NC(=O)c3ccco3)nc2C)cs1 | inconclusive: 18.4 µM [inhibitor, single point] |
